In patent EP4477665A1 (AffyXell Therapeutics Co., Ltd., dated 2024):
No constants are given. Whether binding was seen depends on the method and setting. Some binding calls cover weakened binding; strength is not graded here. One block for each binder: values may come before it.

What was measured:
[1] = biological target: T1, human CD40L (hCD40L antigen) (human, UniProt P29965 113-261, limits assumed); test: ELISA on coated hCD40L, anti-cystatin detection (legend of FIGs. 12A-12C)
T1 sequence (looked up): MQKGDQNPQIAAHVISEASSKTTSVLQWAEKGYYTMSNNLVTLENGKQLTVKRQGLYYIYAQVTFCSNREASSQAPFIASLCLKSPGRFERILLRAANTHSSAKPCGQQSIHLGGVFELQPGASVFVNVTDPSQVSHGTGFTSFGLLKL

[2] = biological target: T1, human CD40L (hCD40L antigen); test: ELISA on coated hCD40L, anti-cystatin detection, without or with 10 uM HSA
[3] = biological target: T1, human CD40L (hCD40L antigen); test: competitive ELISA, hCD40L (1 nM) against coated rhCD40 Fc; percent inhibition in FIG. 10
[4] = biological target: T1, human CD40L (hCD40L antigen); test: ELISA, bacterial lysate on immobilized human CD40L, anti-Myc detection

binding [1]: binds
binding [2]: binds
binding [3]: binds
B1: clone-230 XT76 (designed binder)
chain: IPGGLSEAKPATPEIQEIVDKVKPQLEEKTGETYGKLEAVQYKTQVVHYYVHYNDQGTNYYIKVRAGDNKYMHLKVFKSLWGENLFAKWEDLVLTGYQVDKNKDDELTGFAEAAAKEAAAKEAAAKEAAAKEAAAKEAAAKMIPGGLSEAKPATPEIQEIVDKVKPQLEEKTGETYGKLEAVQYKTQVVHYYVHYNDQGTNYYIKVRAGDNKYMHLKVFKSLWGENLFAKWEDLVLTGYQVDKNKDDELTGFAEAAAKEAAAKEAAAKEAAAKEAAAKEAAAKMIPGGLSEAKPATPEIQEIVDKVKPQLEEKTGETYGKLEAVQYKTQVVHYYVHYNDQGTNYYIKVRAGDNKYMHLKVFKSLWGENLFAKWEDLVLTGYQVDKNKDDELTGFAEAAAKEAAAKEAAAKEAAAKEAAAKEAAAKMIPGGLSEAKPATPEIQEIVDKVKPQLEEKTGETYGKLEAVQYKTQVVHYYVHYNDQGTNYYIKVRAGDNKYMHLKVFKSLWGENLFAKWEDLVLTGYQVDKNKDDELTGFAEAAAKEAAAKEAAAKEAAAKEAAAKEAAAKMIPRGLSEAKPATPEIQEIVDKVKPQLEEKTGETYGKLEAVQYKTQVLANFFQRRWPGSTNYYIKVRAGDNKYMHLKVFNGPWKFRNTDRGADRVLTGYQVDKNKDDELTGF

binding [4]: binds
B2: clone 319 (designed binder)
chain: MIPGGLSEAKPATPEIQEIVDKVKPQLEEKTGETYGKLEAVQYKTQVVPTRWISIYWGTNYYIKVRAGDNKYMHLKVFKSLLNRYYHASIEDLVLTGYQVDKNKDDELTGF

binding [4]: binds
B3: clone 318 (designed binder)
chain: MIPGGLSEAKPATPEIQEIVDKVKPQLEEKTGETYGKLEAVQYKTQVVDDDNQHYGLGTNYYIKVRAGDNKYMHLKVFKSLLHNWWKGNWEDLVLTGYQVDKNKDDELTGF

binding [4]: binds
B4: clone 320 (designed binder)
chain: MIPGGLSEAKPATPEIQEIVDKVKPQLEEKTGETYGKLEAVQYKTQVVTAFAPNKASGTNYYIKVRAGDNKYMHLKVFKSLRYWAFRYLWEDLVLTGYQVDKNKDDELTGF

binding [3]: binds
B5: clone-230 DS (designed binder)
chain: IPGGLSEAKPATPEIQEIVDKVKPQLEEKTGETYGKLEAVQYKTQVVHYYVHYNDQGTNYYIKVRAGDNKYMHLKVFKSLWGENLFAKWEDLVLTGYQVDKNKDDELTGFAEAAAKEAAAKEAAAKEAAAKEAAAKEAAAKMIPGGLSEAKPATPEIQEIVDKVKPQLEEKTGETYGKLEAVQYKTQVVHYYVHYNDQGTNYYIKVRAGDNKYMHLKVFKSLWGENLFAKWEDLVLTGYQVDKNKDDELTGFAEAAAKEAAAKEAAAKEAAAKEAAAKEAAAKMIPGGLSEAKPATPEIQEIVDKVKPQLEEKTGETYGKLEAVQYKTQVVHYYVHYNDQGTNYYIKVRAGDNKYMHLKVFKSLWGENLFAKWEDLVLTGYQVDKNKDDELTGFAEAAAKEAAAKEAAAKEAAAKEAAAKEAAAKMIPGGLSEAKPATPEIQEIVDKVKPQLEEKTGETYGKLEAVQYKTQVVHYYVHYNDQGTNYYIKVRAGDNKYMHLKVFKSLWGENLFAKWEDLVLTGYQVDKNKDDELTGF

binding [4]: binds
B6: clone 316 (designed binder)
chain: MIPGGLSEAKPATPEIQEIVDKVKPQLEEKTGETYGKLEAVQYKTQVVVSLTEQRWKGTNYYIKVRAGDNKYMHLKVFKSLFQPIKLANAEDLVLTGYQVDKNKDDELTGF

binding [4]: binds
B7: clone 324 (designed binder)
chain: MIPGGLSEAKPATPEIQEIVDKVKPQLEEKTGETYGKLEAVQYKTQVVHEKWGFWELGTNYYIKVRAGDNKYMHLKVFKSLHSHRFHEAHEDLVLTGYQVDKNKDDELTGF

binding [4]: binds
B8: clone 322 (designed binder)
chain: MIPGGLSEAKPATPEIQEIVDKVKPQLEEKTGETYGKLEAVQYKTQVVNKFWSWAPGGTNYYIKVRAGDNKYMHLKVFKSLADSGFNATPEDLVLTGYQVDKNKDDELTGF

binding [4]: binds
B9: clone 323 (designed binder)
chain: MIPGGLSEAKPATPEIQEIVDKVKPQLEEKTGETYGKLEAVQYKTQVVELDEPAWDWGTNYYIKVRAGDNKYMHLKVFKSLRQHKKPHPNEDLVLTGYQVDKNKDDELTGF

binding [4]: binds
B10: clone 325 (designed binder)
chain: MIPGGLSEAKPATPEIQEIVDKVKPQLEEKTGETYGKLEAVQYKTQVVVATADLIKAGTNYYIKVRAGDNKYMHLKVFKSLPWHYPPNKWEDLVLTGYQVDKNKDDELTGF

binding [4]: binds
B11: clone 321 (designed binder)
chain: MIPGGLSEAKPATPEIQEIVDKVKPQLEEKTGETYGKLEAVQYKTQVVHYTDFKWHKGTNYYIKVRAGDNKYMHLKVFKSLPFWANEHGWEDLVLTGYQVDKNKDDELTGF

binding [3]: binds
B12: clone-230 DT (designed binder)
chain: IPGGLSEAKPATPEIQEIVDKVKPQLEEKTGETYGKLEAVQYKTQVVHYYVHYNDQGTNYYIKVRAGDNKYMHLKVFKSLWGENLFAKWEDLVLTGYQVDKNKDDELTGFAEAAAKEAAAKEAAAKEAAAKEAAAKEAAAKMIPGGLSEAKPATPEIQEIVDKVKPQLEEKTGETYGKLEAVQYKTQVVHYYVHYNDQGTNYYIKVRAGDNKYMHLKVFKSLWGENLFAKWEDLVLTGYQVDKNKDDELTGFAEAAAKEAAAKEAAAKEAAAKEAAAKEAAAKMIPGGLSEAKPATPEIQEIVDKVKPQLEEKTGETYGKLEAVQYKTQVVHYYVHYNDQGTNYYIKVRAGDNKYMHLKVFKSLWGENLFAKWEDLVLTGYQVDKNKDDELTGF

binding [4]: binds
B13: clone 317 (designed binder)
chain: MIPGGLSEAKPATPEIQEIVDKVKPQLEEKTGETYGKLEAVQYKTQVVWVSQQHYSHGTNYYIKVRAGDNKYMHLKVFKSLFAFRKYEDREDLVLTGYQVDKNKDDELTGF

binding [1]: binds
binding [2]: binds
binding [3]: binds
B14: clone-230 XT75 (designed binder)
chain: IPGGLSEAKPATPEIQEIVDKVKPQLEEKTGETYGKLEAVQYKTQVVHYYVHYNDQGTNYYIKVRAGDNKYMHLKVFKSLWGENLFAKWEDLVLTGYQVDKNKDDELTGFAEAAAKEAAAKEAAAKEAAAKEAAAKEAAAKMIPGGLSEAKPATPEIQEIVDKVKPQLEEKTGETYGKLEAVQYKTQVVHYYVHYNDQGTNYYIKVRAGDNKYMHLKVFKSLWGENLFAKWEDLVLTGYQVDKNKDDELTGFAEAAAKEAAAKEAAAKEAAAKEAAAKEAAAKMIPGGLSEAKPATPEIQEIVDKVKPQLEEKTGETYGKLEAVQYKTQVVHYYVHYNDQGTNYYIKVRAGDNKYMHLKVFKSLWGENLFAKWEDLVLTGYQVDKNKDDELTGFAEAAAKEAAAKEAAAKEAAAKEAAAKEAAAKMIPRGLSEAKPATPEIQEIVDKVKPQLEEKTGETYGKLEAVQYKTQVLANFFQRRWPGSTNYYIKVRAGDNKYMHLKVFNGPWKFRNTDRGADRVLTGYQVDKNKDDELTGF

binding [4]: binds
B15: clone 327 (designed binder)
chain: MIPGGLSEAKPATPEIQEIVDKVKPQLEEKTGETYGKLEAVQYKTQVVHWHHYDNIIGTNYYIKVRAGDNKYMHLKVFKSLYQLVDLDLDEDLVLTGYQVDKNKDDELTGF

binding [4]: binds
B16: clone 326 (designed binder)
chain: MIPGGLSEAKPATPEIQEIVDKVKPQLEEKTGETYGKLEAVQYKTQVVYYKVISWWHGTNYYIKVRAGDNKYMHLKVFKSLYKTPFPQYTEDLVLTGYQVDKNKDDELTGF

binding [4]: binds
B17: clone 315 (designed binder)
chain: MIPGGLSEAKPATPEIQEIVDKVKPQLEEKTGETYGKLEAVQYKTQVVIGYKLNYIWGTNYYIKVRAGDNKYMHLKVFKSLIQYRWQDRVEDLVLTGYQVDKNKDDELTGF

binding [4]: binds
B18: clone 314 (designed binder)
chain: MIPGGLSEAKPATPEIQEIVDKVKPQLEEKTGETYGKLEAVQYKTQVVRDWAYYIYFGTNYYIKVRAGDNKYMHLKVFKSLRSDTLHYWNEDLVLTGYQVDKNKDDELTGF

binding [4]: binds
B19: clone 235 (designed binder)
chain: MIPGGLSEAKPATPEIQEIVDKVKPQLEEKTGETYGKLEAVQYKTQVVSWVKPDNELGTNYYIKVRAGDNKYMHLKVFKSLWQVHDKQWLEDLVLTGYQVDKNKDDELTGF
